Measured values: patent US8753847
Where a protein sequence is shown, tags need not be part of it.

Test system: T1, TspMI restriction endonuclease (Thermus sp.)
T1 sequence: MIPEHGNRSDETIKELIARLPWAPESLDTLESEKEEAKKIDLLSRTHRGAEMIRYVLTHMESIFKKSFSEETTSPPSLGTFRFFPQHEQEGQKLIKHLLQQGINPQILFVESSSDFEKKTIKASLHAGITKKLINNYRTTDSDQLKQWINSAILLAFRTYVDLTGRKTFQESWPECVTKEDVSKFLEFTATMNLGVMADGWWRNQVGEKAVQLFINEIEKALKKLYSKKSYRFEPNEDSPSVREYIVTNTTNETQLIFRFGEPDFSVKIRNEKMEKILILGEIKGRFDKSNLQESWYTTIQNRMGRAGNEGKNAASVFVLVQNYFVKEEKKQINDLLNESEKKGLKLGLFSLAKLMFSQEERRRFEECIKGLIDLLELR
Assay: enzyme reaction in vitro
Conditions: expressed at 37 C then briefly 65 C; gene selected by cleavage after three rounds; protein translated in vitro; protein details: PURE system expression in emulsion droplets

CCCGGG (double strand)
activity on this sequence: active
